Measurements reported in PubChem BioAssay AID1159584 (Peter MacCallum Cancer Centre, 2016)

Aim: 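Genes that CDH1-null MCF10A cells selectively depend on to survive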 (primary screen)
System: human MCF10A breast epithelial cells, parental and CDH1-null
Knock-down reagent: siRNA against human genes
Measurement: 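Cell viability by CellTiter-Glo ATP luminescence, each line scaled to the mean of mock wells across plates, then CDH1-null over parental ratio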
Direction: CDH1-null / parental viability ratio: higher = CDH1-null cells survive relatively better than parental; CDH1-null viability vs mock: higher = more viable CDH1-null cells
The deposit covers about 18,000 reagents; shown is an unselected part. Not all columns of the deposit are shown. No sequences are given here. Not given: the amount of reagent, the time to read-out.

Which result is listed for LINGO1 (leucine rich repeat and Ig domain containing 1)?
CDH1-null / parental viability ratio: 0.92; CDH1-null viability vs mock (fraction of mock): 0.66

With POU2F2 (POU class 2 homeobox 2), what does the deposit list?
CDH1-null / parental viability ratio: 0.96; CDH1-null viability vs mock (fraction of mock): 0.78

With RTL3 (retrotransposon Gag like 3), what was measured?
CDH1-null / parental viability ratio: 1.52; CDH1-null viability vs mock (fraction of mock): 0.76

With SARM1 (sterile alpha and TIR motif containing 1), what does the deposit list?
CDH1-null / parental viability ratio: 0.85; CDH1-null viability vs mock (fraction of mock): 0.35

Which result is listed for TXNDC9 (thioredoxin domain containing 9)?
CDH1-null / parental viability ratio: 1.13; CDH1-null viability vs mock (fraction of mock): 0.43

With FCER2 (Fc epsilon receptor II), what does the deposit list?
CDH1-null / parental viability ratio: 0.81; CDH1-null viability vs mock (fraction of mock): 0.83

Which result is listed for MEF2A (myocyte enhancer factor 2A)?
CDH1-null / parental viability ratio: 0.88; CDH1-null viability vs mock (fraction of mock): 0.92

What is on record for ARMC10 (armadillo repeat containing 10)?
CDH1-null / parental viability ratio: 0.95; CDH1-null viability vs mock (fraction of mock): 0.9

What did the screen give for TTLL5 (tubulin tyrosine ligase like 5)?
CDH1-null / parental viability ratio: 0.64; CDH1-null viability vs mock (fraction of mock): 0.5

For MPHOSPH9 (M-phase phosphoprotein 9), what was measured?
CDH1-null / parental viability ratio: 0.91; CDH1-null viability vs mock (fraction of mock): 0.8

With TADA1 (transcriptional adaptor 1), how do the results read?
CDH1-null / parental viability ratio: 0.91; CDH1-null viability vs mock (fraction of mock): 0.68

For ZNF619 (zinc finger protein 619), what does the deposit list?
CDH1-null / parental viability ratio: 0.82; CDH1-null viability vs mock (fraction of mock): 0.62

Which result is listed for ZNF706 (zinc finger protein 706)?
CDH1-null / parental viability ratio: 0.75; CDH1-null viability vs mock (fraction of mock): 0.44

For MEF2D (myocyte enhancer factor 2D), how do the results read?
CDH1-null / parental viability ratio: 1.26; CDH1-null viability vs mock (fraction of mock): 1.29

Which result is listed for OR2AK2 (olfactory receptor family 2 subfamily AK member 2)?
CDH1-null / parental viability ratio: 0.97; CDH1-null viability vs mock (fraction of mock): 0.85

What did the screen give for CYB561 (cytochrome b561)?
CDH1-null / parental viability ratio: 1.38; CDH1-null viability vs mock (fraction of mock): 1.02

What did the screen give for PUM3 (pumilio RNA binding family member 3)?
CDH1-null / parental viability ratio: 0.86; CDH1-null viability vs mock (fraction of mock): 0.64

With CCNI2 (cyclin I family member 2), how do the results read?
CDH1-null / parental viability ratio: 1.06; CDH1-null viability vs mock (fraction of mock): 0.87

Which result is listed for ATP6V1A (ATPase H+ transporting V1 subunit A)?
CDH1-null / parental viability ratio: 1.17; CDH1-null viability vs mock (fraction of mock): 0.84

With LGI4 (leucine rich repeat LGI family member 4), what was measured?
CDH1-null / parental viability ratio: 0.87; CDH1-null viability vs mock (fraction of mock): 1.1

With ZAP70 (zeta chain of T cell receptor associated protein kinase 70), how do the results read?
CDH1-null / parental viability ratio: 0.92; CDH1-null viability vs mock (fraction of mock): 0.7

Which result is listed for ABCB10 (ATP binding cassette subfamily B member 10)?
CDH1-null / parental viability ratio: 0.9; CDH1-null viability vs mock (fraction of mock): 0.54

With COLEC11 (collectin subfamily member 11), how do the results read?
CDH1-null / parental viability ratio: 1.31; CDH1-null viability vs mock (fraction of mock): 0.42

What did the screen give for ANKRD50 (ankyrin repeat domain 50)?
CDH1-null / parental viability ratio: 0.83; CDH1-null viability vs mock (fraction of mock): 0.53

With PNO1 (partner of NOB1 homolog), what does the deposit list?
CDH1-null / parental viability ratio: 0.95; CDH1-null viability vs mock (fraction of mock): 0.58

With PREP (prolyl endopeptidase), how do the results read?
CDH1-null / parental viability ratio: 1.13; CDH1-null viability vs mock (fraction of mock): 0.78

With FEZ1 (fasciculation and elongation protein zeta 1), what was measured?
CDH1-null / parental viability ratio: 0.98; CDH1-null viability vs mock (fraction of mock): 0.52

For BRF2 (BRF2 general transcription factor IIIB subunit), how do the results read?
CDH1-null / parental viability ratio: 1.09; CDH1-null viability vs mock (fraction of mock): 1.05

For MIER3 (MIER family member 3), how do the results read?
CDH1-null / parental viability ratio: 1.21; CDH1-null viability vs mock (fraction of mock): 0.92

With BSCL2 (BSCL2 lipid droplet biogenesis associated, seipin), what was measured?
CDH1-null / parental viability ratio: 0.77; CDH1-null viability vs mock (fraction of mock): 0.61

With JCHAIN (joining chain of multimeric IgA and IgM), what does the deposit list?
CDH1-null / parental viability ratio: 0.92; CDH1-null viability vs mock (fraction of mock): 0.55

What is on record for KCNA5 (potassium voltage-gated channel subfamily A member 5)?
CDH1-null / parental viability ratio: 1.19; CDH1-null viability vs mock (fraction of mock): 0.94

With GEN1 (GEN1 structure-specific endonuclease), how do the results read?
CDH1-null / parental viability ratio: 0.93; CDH1-null viability vs mock (fraction of mock): 0.83

With LCT (lactase), what was measured?
CDH1-null / parental viability ratio: 0.94; CDH1-null viability vs mock (fraction of mock): 0.9

For WDR93 (WD repeat domain 93), how do the results read?
CDH1-null / parental viability ratio: 0.93; CDH1-null viability vs mock (fraction of mock): 0.84

For SLC25A15, what does the deposit list?
CDH1-null / parental viability ratio: 0.99; CDH1-null viability vs mock (fraction of mock): 0.82

For ZFYVE26 (zinc finger FYVE-type containing 26), how do the results read?
CDH1-null / parental viability ratio: 0.85; CDH1-null viability vs mock (fraction of mock): 0.56

What did the screen give for ID3 (inhibitor of DNA binding 3)?
CDH1-null / parental viability ratio: 0.92; CDH1-null viability vs mock (fraction of mock): 1.04

Which result is listed for SULT6B1 (sulfotransferase family 6B member 1)?
CDH1-null / parental viability ratio: 1.05; CDH1-null viability vs mock (fraction of mock): 0.91

Which result is listed for PUDP (pseudouridine 5'-phosphatase)?
CDH1-null / parental viability ratio: 1; CDH1-null viability vs mock (fraction of mock): 1.13

For TMEM168 (transmembrane protein 168), what was measured?
CDH1-null / parental viability ratio: 0.83; CDH1-null viability vs mock (fraction of mock): 0.75

How did the screen score SAMD13 (sterile alpha motif domain containing 13)?
CDH1-null / parental viability ratio: 0.94; CDH1-null viability vs mock (fraction of mock): 0.96

With ZNF561 (zinc finger protein 561), what was measured?
CDH1-null / parental viability ratio: 0.91; CDH1-null viability vs mock (fraction of mock): 0.69

For NOA1 (nitric oxide associated 1), what was measured?
CDH1-null / parental viability ratio: 1.24; CDH1-null viability vs mock (fraction of mock): 0.82

What did the screen give for CRYM (crystallin mu)?
CDH1-null / parental viability ratio: 0.95; CDH1-null viability vs mock (fraction of mock): 0.74

Records listed so far whose gene name starts with Z or z (5):
ZNF619 (zinc finger protein 619) | CDH1-null / parental viability ratio = 0.82; CDH1-null viability vs mock (fraction of mock) = 0.62
ZNF706 (zinc finger protein 706) | CDH1-null / parental viability ratio = 0.75; CDH1-null viability vs mock (fraction of mock) = 0.44
ZAP70 (zeta chain of T cell receptor associated protein kinase 70) | CDH1-null / parental viability ratio = 0.92; CDH1-null viability vs mock (fraction of mock) = 0.7
ZFYVE26 (zinc finger FYVE-type containing 26) | CDH1-null / parental viability ratio = 0.85; CDH1-null viability vs mock (fraction of mock) = 0.56
ZNF561 (zinc finger protein 561) | CDH1-null / parental viability ratio = 0.91; CDH1-null viability vs mock (fraction of mock) = 0.69
